The campaign covered roughly 340,000 compounds. About 6,200 (1.8%) were called active. The inconclusive results got no clear call from the source; some entries with a clear call stand among them for comparison. The call rests on the fitted dose curve; in most records, active means well fitted activation curve with a large enough effect; inconclusive means small, poorly fitted or top-dose-only effect; inactive means no such curve, though single readings can be large or run the other way. Where the call is inconclusive, the potency comes from a doubtful curve fit.
Experiment: A quantitative high throughput screen for small molecules that induce DNA re-replication in SW480 colon adenocarcinoma cells. Further: nearly all actives have a fitted effect of over 55% in size. On re-replication activation: % of control where 0% means no effect.
Details: Hoechst DNA content imaging, 48 h; re-replication activation: at 46.1 µM (top of the series)
Outline: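 DNA re-replication was detected as more nuclei of elevated Hoechst intensity after 48 hr exposure to compound (23 nL pinned per well of 250 cells).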
In the case of Cc1ccc(OCC(O)Cn2c3ccccc3c3ccccc32)cc1 (stereo not given), the Potency is reported as inconclusive: 16.4 µM [activator, single point]. With Cc1cc2ccccn2c1C(=O)c1ccccc1F the Potency was inconclusive: 23.1 µM [activator, single point]. For CCCn1c(NC(=O)c2ccc([N+](=O)[O-])o2)nc2ccccc21, the Potency was active: 20.6 µM. For COc1ccc(CCNC(=O)COC(=O)c2cccs2)cc1, the Potency was inconclusive: 0.116 µM [activator, full curve, poor fit]. With CCOc1cc(C(=O)Nc2cccc3ncccc23)cc(OCC)c1OCC the “re-replication activation” value was inactive: -5.41%. With CC(C)c1ccc(/C=N/NC(=O)c2ccccc2Cl)cc1 the Potency was active: 13 µM. In the case of COc1ccc(CC(CC(=O)O)C(=O)NCc2ccccc2)cc1 (stereo not given), the “re-replication activation” value is reported as inactive: -2.97%. In the case of Nc1ccc(C(=O)OCC(=O)Nc2cc([N+](=O)[O-])ccc2F)cc1, the Potency is reported as inconclusive: 6.51 µM [activator, partial curve]. With O=C(NCCc1csc(-c2cccc(F)c2)n1)c1ccco1 the Potency was inconclusive: 0.58 µM [activator, full curve]. With O=c1[nH]c(=S)[nH]c2sc3c(c12)CCCCCC3 the “re-replication activation” value was inactive: -0.91%. For Cc1ccc(C)c(C(=O)OCC(=O)Nc2cccc(S(=O)(=O)N3CCCCC3)c2)c1, the Potency was inconclusive: 1.46 µM [activator, partial curve, poor fit]. With CCN(CC)S(=O)(=O)c1cc(C(=O)Oc2cccc(-c3cnc4ccccc4n3)c2)ccc1Br the “re-replication activation” value was inactive: -12%. In the case of O=C(Nc1nnc(-c2ccc3c(c2)CCCC3)o1)C1COc2ccccc2O1 (stereo not given), the “re-replication activation” value is reported as inactive: 0.69%. With COc1ccc(Nc2nnc(SCC(=O)NC3CCS(=O)(=O)C3)s2)cc1 (stereo not given) the “re-replication activation” value was inactive: -86%. For C/C(=N\Nc1cc(-c2ccccc2)nc(-c2ccc(Br)cc2)n1)c1cccc(N)c1, the Potency was inconclusive: 18.4 µM [activator, single point]. With COc1cccc(Nc2ccc(N3CCCCC3)cc2)c1OC the Potency was inconclusive: 16.4 µM [activator, partial curve, poor fit]. For COc1cc2c(cc1OC)C(c1ccc(-c3ccc(Cl)c(Cl)c3)o1)=NCC2, the Potency was active: 18.4 µM. With CCCCOc1ccc(C(=O)N/N=C/c2ccc(OCCN3CCCCC3)c(OC)c2)cc1 the Potency was inconclusive: 29.1 µM [activator, single point]. In the case of C[C@@H]1CN([C@H](C)CO)C(=O)c2cc(NC(=O)Cc3cn(C)c4ccccc34)ccc2O[C@H]1CN(C)S(=O)(=O)c1ccc(F)cc1, the Potency is reported as inconclusive: 6.51 µM [activator, partial curve]. In the case of CCOC(=O)[C@@H]1C(c2c(OC)cc(OC)cc2OC)=NO[C@@H]1C(=O)OCC, the “re-replication activation” value is reported as inactive: -1.55%. For O=C(c1ccccc1)N1N=C(c2ccccc2O)CC1c1ccccc1 (stereo not given), the “re-replication activation” value was inactive: 0.886%. For CCCCN(C)c1nc(-c2ccco2)c2c(c1C#N)CC(C)(C)OC2, the Potency was active: 16.4 µM. For CN(C)CCn1c(NC(=O)c2ccc(Cl)cc2)nc2ccccc21, the “re-replication activation” value was inactive: 7.57%. In the case of CC(C)c1ccc(C(=O)Nc2ccc(N3CCOCC3)cc2)cc1, the Potency is reported as inconclusive: 4.61 µM [activator, partial curve, poor fit]. In the case of S=C(Nc1ccccc1Cl)N1CCCC(c2ccccc2)=N1, the Potency is reported as inconclusive: 14.6 µM [activator, single point]. For O=C(Cn1nc(-c2ccccc2)ccc1=O)Nc1ccc(N2CCN(C(=O)c3cccs3)CC2)cc1, the “re-replication activation” value was inactive: -3.3%. In the case of O=C(Nc1ccc(Cl)c(NC(=O)c2cccs2)c1)c1ccco1, the “re-replication activation” value is reported as inactive: 3.45%. For COc1cccc(/C=N/Nc2cc(N3CCOCC3)ncn2)c1O, the Potency was inconclusive: 7.31 µM [activator, single point]. In the case of CC(C)(C)C(=O)NCc1ccc(C(=O)CSc2nnc(-c3ccncc3)n2C2CC2)s1, the “re-replication activation” value is reported as inactive: -1.68%. In the case of Cc1ccc(N2CC(=O)Nc3c(oc4nc(-c5ccccc5)cc(C)c34)C2=O)cc1, the Potency is reported as inconclusive: 0.82 µM [activator, full curve, poor fit]. For CCCNC(=O)C(Cc1cccc(OC)c1)NC(=O)c1ccc(C#N)cc1 (stereo not given), the “re-replication activation” value was inactive: -6.15%. For Cc1cccn2c(=O)c3cc(C(=O)NCc4ccco4)c(=N)n(C4CCCC4)c3nc12, the Potency was active: 1.84 µM. For COc1ccc(C(=O)COC(=O)c2ccc(N(C)C)cc2)cc1, the Potency was inconclusive: 1.16 µM [activator, single point]. With CCc1ccc(CN(C)C(=O)c2cc(COc3ccc(-n4cncn4)cc3)on2)cc1 the “re-replication activation” value was inactive: -43.4%. For CCC(C)C(=O)Nc1ccc(S(=O)(=O)N2CCCC2)cc1 (stereo not given), the Potency was inconclusive: 0.366 µM [activator, full curve, poor fit]. For O=C(Nc1ccc(F)cc1)NC1CCN(Cc2c(F)cccc2Cl)CC1, the Potency was inconclusive: 25.9 µM [activator, single point]. For COc1ccc(OC)c(NS(=O)(=O)c2ccc(Cl)s2)c1, the Potency was inconclusive: 25.9 µM [activator, partial curve, poor fit]. With S=c1[nH]nc(COc2ccccc2)n1/N=C/C(Cl)=C/c1ccccc1 the Potency was inconclusive: 29.1 µM [activator, single point]. In the case of CCOC(=O)C1=C(O)/C(=C/c2cc(OC)c(O)c(OC)c2)SC1=Nc1ccc(OC)cc1, the Potency is reported as inconclusive: 18.4 µM [activator, single point]. With COC(=O)C1=C(C)NC(=O)/C1=C\c1cc(C)n(-c2ccccc2)c1C the Potency was inconclusive: 16.4 µM [activator, single point]. In the case of COCc1cc(=O)[nH]c(Nc2nc3ccccc3o2)n1, the Potency is reported as inconclusive: 35.5 µM [activator, single point]. For Cc1ccc(/C=N/NC(=O)c2cc(-c3ccc(C)o3)[nH]n2)cc1, the Potency was inconclusive: 29.1 µM [activator, single point]. For Cc1cccc(N2C(=O)CC(Sc3nc(C)c4c(n3)CCCC4)C2=O)c1 (stereo not given), the Potency was active: 5.8 µM. In the case of CC(C)OC(=O)C(C)Nc1n[nH]c(=S)[nH]c1=O (stereo not given), the Potency is reported as inconclusive: 25.9 µM [activator, partial curve, poor fit]. With N/C(=N\O)c1ccc(Oc2ccccc2Cl)c([N+](=O)[O-])c1 the Potency was inconclusive: 5.17 µM [activator, single point]. For N#Cc1c2ccc(O)cc2n2ccccc12, the Potency was inconclusive: 18.4 µM [activator, single point]. In the case of Cc1ccc(-c2ocnc2C(=O)Nc2ccccc2C(=O)N2CCCC2)cc1, the “re-replication activation” value is reported as inactive: 0.781%. In the case of Cc1cc([N+](=O)[O-])cc(/C=N\NC(=O)C2COc3ccccc3O2)c1O (stereo not given), the Potency is reported as inconclusive: 23.1 µM [activator, single point]. With CCN(CC)S(=O)(=O)c1ccc(NC(=O)c2cc(-c3cccs3)nc3ccccc23)cc1 the “re-replication activation” value was inactive: 4.7%. In the case of CC(=O)Nc1ccc(Nc2nc(C)c([N+](=O)[O-])c(N(C)c3ccccc3)n2)cc1, the “re-replication activation” value is reported as inactive: -1.36%. In the case of CCCCCNC1=CC(=O)CC(c2ccccc2)C1 (stereo not given), the Potency is reported as inconclusive: 25.9 µM [activator, single point]. With CC(C)(C)c1ccc(OCCNC(=S)Nc2ccccc2)cc1 the Potency was inconclusive: 29.1 µM [activator, single point]. With Cc1cc(/C=C(\C#N)C(=O)NC2CCCCCC2)c(C)[nH]1 the “re-replication activation” value was inactive: -4.23%. In the case of COc1ccc(NC(=O)c2cc(-c3ccncc3)nc3ccccc23)c(OC)c1, the Potency is reported as inconclusive: 23.1 µM [activator, single point]. In the case of CCOc1ccc(CSC(=N)N)cc1[N+](=O)[O-], the Potency is reported as inconclusive: 29.1 µM [activator, single point]. With CCOC(=O)C1C(=O)C=C(c2ccc(C)cc2)CC1c1cccc([N+](=O)[O-])c1 (stereo not given) the Potency was inconclusive: 29.1 µM [activator, single point]. For COc1ccc(S(=O)(=O)N2CCN(C(=O)c3cc(-c4ccc(Br)cc4)n[nH]3)CC2)cc1OC, the Potency was inconclusive: 20.6 µM [activator, partial curve, poor fit]. In the case of C=CC[C@@H](CC(=O)N[C@H](CO)Cc1ccccc1)C(=O)N[C@H](COC(=O)[C@@H](CC=C)Cc1ccc(F)cc1)C(C)(C)C, the Potency is reported as inconclusive: 29.1 µM [activator, single point]. With COc1cccc(C2C(C(=O)OC(C)C)=C(C)N=c3s/c(=C\c4ccc(C(=O)O)cc4)c(=O)n32)c1 (stereo not given) the Potency was inconclusive: 20.6 µM [activator, single point]. With O=C(Nc1ccc(C(F)(F)F)cc1)C1CCN(S(=O)(=O)c2ccc(N3CCCC3=O)cc2)CC1 the “re-replication activation” value was inactive: -3.74%. In the case of CCNC(=O)N1CCCC(C(=O)c2ccc(C(F)(F)F)cc2)C1 (stereo not given), the Potency is reported as inconclusive: 2.91 µM [activator, full curve, poor fit]. In the case of O=C(CCN1CCN(C(c2ccccc2)c2ccccc2)CC1)N/N=C/c1ccc(O)cc1, the “re-replication activation” value is reported as inactive: -4.43%. For COCCN(C(=O)CCC(=O)Nc1ccccn1)C(C(=O)NCCC(C)C)c1ccc(F)cc1 (stereo not given), the “re-replication activation” value was inactive: -15.7%. With O=S1(=O)C=C(Sc2nc3cc(Cl)ccc3o2)c2ccccc21 the Potency was inconclusive: 25.9 µM [activator, single point]. With CCCN(CC(=O)Nc1ccccc1Br)CC(=O)Nc1ccc(F)c(F)c1F the “re-replication activation” value was inactive: 0.716%. For N#C/C(=C(/O)c1ccc2c(c1)OCO2)c1nc2cc(C(F)(F)F)ccc2s1, the Potency was inconclusive: 1.46 µM [activator, partial curve, poor fit]. With CCN(Cc1ccccc1)C(=O)c1cccc(OC2CCN(C(=O)C3CC3)CC2)c1 the “re-replication activation” value was inactive: 2.75%. In the case of Cn1cc(C(=O)c2ccc(Cl)cc2Cl)cc1C=O, the Potency is reported as inconclusive: 0.517 µM [activator, full curve, poor fit]. For S=C(Nc1ccc(Br)cc1Cl)NC1CCN(Cc2ccccc2)CC1, the Potency was inconclusive: 4.11 µM [activator, full curve, poor fit]. With CCn1c2ccccc2c2nc3cc(C(=O)O)ccc3nc21 the “re-replication activation” value was inactive: -19.7%.
Potency means the concentration at half of the fitted maximal effect.
